The target in this experiment is T1, Tri-domain proteins 27 (TRIM27) (mouse (endogenous in mRTECs)) (UniProt Q62158).
T1 sequence: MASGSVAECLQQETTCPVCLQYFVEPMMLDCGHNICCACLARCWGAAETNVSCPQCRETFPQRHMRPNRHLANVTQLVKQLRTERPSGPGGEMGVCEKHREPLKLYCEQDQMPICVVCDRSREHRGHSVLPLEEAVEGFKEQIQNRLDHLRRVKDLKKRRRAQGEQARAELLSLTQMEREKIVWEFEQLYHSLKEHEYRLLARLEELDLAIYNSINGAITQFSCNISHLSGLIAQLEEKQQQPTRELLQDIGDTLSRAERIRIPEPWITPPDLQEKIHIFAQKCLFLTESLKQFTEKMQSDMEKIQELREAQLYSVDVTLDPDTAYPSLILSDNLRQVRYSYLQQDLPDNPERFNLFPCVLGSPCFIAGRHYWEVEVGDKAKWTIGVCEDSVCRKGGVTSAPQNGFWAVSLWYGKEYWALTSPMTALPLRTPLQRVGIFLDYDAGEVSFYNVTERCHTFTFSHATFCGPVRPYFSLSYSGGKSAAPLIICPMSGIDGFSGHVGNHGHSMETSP
The experiment can be described thus: co-IP; cell lysates incubated for 4 h with Sepharose CL-4B beads conjugated with anti-TRIM27 antibody or IgG; bound proteins eluted and examined by western blotting; cells with and without H2O2 treatment (interaction weakened after H2O2).

Protein sequences, listed by entry. Tags and fused reporters are not part of them.
UniProt Q61188: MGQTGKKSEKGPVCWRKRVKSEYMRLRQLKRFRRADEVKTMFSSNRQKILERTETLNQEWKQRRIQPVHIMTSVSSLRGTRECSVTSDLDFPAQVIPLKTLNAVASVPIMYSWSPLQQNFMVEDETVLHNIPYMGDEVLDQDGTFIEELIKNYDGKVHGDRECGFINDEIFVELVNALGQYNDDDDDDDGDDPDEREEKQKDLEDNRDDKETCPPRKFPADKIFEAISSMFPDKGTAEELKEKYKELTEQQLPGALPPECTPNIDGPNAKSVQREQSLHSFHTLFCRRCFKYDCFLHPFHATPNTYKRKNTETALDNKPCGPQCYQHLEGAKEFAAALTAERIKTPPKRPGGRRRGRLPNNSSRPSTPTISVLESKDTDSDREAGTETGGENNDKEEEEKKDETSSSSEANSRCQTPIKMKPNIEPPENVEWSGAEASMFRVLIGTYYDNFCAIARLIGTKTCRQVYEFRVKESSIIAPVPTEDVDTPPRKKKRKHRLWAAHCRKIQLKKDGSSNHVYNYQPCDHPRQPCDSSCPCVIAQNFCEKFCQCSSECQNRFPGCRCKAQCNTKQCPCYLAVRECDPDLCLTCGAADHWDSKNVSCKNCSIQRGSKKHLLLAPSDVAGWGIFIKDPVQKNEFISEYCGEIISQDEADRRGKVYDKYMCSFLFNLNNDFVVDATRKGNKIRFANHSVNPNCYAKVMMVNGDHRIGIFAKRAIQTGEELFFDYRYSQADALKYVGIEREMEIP

Results are given in words; binding and its absence hold for the method and conditions named. In cells and extracts the contact can be indirect. Some binding calls cover weakened binding; strength is not graded here.

Regarding “Enhancer of zeste homolog 2 (EZH2) (from UniProt Q61188 1-746)”, the binding result was “binds”.

Source of the values: publication PMC12444411.
